Assay results from paper PMC4504036.
No constants are given. Whether binding was seen depends on the method and setting.

Protein sequences, listed by entry. Tags and fused reporters are not part of them. Residues count along the entry.
UniProt P55058, residues 18-493: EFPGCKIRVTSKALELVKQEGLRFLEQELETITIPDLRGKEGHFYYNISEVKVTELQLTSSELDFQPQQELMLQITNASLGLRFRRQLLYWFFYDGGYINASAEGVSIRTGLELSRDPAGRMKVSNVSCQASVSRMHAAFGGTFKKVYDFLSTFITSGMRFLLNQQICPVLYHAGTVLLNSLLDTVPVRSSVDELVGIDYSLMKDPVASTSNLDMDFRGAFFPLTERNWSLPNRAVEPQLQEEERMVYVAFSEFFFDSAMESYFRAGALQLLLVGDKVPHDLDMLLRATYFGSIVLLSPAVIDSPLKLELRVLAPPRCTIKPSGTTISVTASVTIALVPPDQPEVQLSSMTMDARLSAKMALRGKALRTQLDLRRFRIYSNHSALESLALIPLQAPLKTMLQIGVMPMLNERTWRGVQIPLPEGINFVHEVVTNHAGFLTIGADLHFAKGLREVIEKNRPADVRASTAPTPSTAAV
UniProt P03951, residues 19-625: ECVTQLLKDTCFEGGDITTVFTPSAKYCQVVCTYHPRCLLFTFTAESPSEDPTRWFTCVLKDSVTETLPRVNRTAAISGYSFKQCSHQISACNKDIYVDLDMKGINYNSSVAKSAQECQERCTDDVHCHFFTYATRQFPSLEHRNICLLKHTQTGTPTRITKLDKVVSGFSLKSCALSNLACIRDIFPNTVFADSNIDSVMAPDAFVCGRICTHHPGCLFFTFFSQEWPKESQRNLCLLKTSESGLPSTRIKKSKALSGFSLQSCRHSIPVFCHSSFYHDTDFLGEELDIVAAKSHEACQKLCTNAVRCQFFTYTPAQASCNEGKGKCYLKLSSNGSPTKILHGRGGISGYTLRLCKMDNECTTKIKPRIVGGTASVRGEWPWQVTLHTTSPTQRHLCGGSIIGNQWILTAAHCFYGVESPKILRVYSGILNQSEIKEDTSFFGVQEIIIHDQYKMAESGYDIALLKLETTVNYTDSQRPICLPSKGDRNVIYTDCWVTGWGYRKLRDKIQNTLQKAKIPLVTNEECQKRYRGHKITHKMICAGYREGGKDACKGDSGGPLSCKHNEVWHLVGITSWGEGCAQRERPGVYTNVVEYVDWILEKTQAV

Biological target: Recombinant wild-type phospholipid transfer protein (rPLTP) (human) (UniProt P55058)
Assay: SPR; BIAcore 3000; rPLTP with C-terminal His-tag captured on anti-His tag monoclonal antibody immobilised on a CM5 chip; factor XII (0-750 nM) or factor XI injected; 50 mM Hepes, 150 mM NaCl, 5 mM CaCl2, pH 7.4; global fit, simple Langmuir model; apparent Kd; both purified

binding: no binding (tested: up to 500 nM)
Substance: Factor XI (from UniProt P03951 19-625)
